No constants are given. Whether binding was seen depends on the method and setting. Some entries that bind do so weakly or less than the wild type.
Experiments:
[1] = target: CD55 (human) (UniProt P08174); experiment: Western blot antigen signature; IP/MS
[2] = target: Integrin alpha6/beta4 (human) (UniProt P23229+P16144); experiment: IP/MS

Sequences of proteins named here, by UniProt entry; tags and fusion partners are left off. A change or cut given only in a name is not applied to a line headed by its entry. Residues count along the entry.
UniProt P08174, residues 35-353: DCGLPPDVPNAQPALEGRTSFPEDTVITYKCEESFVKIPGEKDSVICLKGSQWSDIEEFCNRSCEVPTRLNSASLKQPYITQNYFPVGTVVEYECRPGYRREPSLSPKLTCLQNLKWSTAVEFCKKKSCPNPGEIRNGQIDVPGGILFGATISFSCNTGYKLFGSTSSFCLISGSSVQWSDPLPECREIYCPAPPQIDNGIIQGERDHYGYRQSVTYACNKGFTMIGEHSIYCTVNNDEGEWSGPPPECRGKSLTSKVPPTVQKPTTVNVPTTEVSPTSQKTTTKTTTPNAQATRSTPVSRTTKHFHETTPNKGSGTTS
UniProt P23229: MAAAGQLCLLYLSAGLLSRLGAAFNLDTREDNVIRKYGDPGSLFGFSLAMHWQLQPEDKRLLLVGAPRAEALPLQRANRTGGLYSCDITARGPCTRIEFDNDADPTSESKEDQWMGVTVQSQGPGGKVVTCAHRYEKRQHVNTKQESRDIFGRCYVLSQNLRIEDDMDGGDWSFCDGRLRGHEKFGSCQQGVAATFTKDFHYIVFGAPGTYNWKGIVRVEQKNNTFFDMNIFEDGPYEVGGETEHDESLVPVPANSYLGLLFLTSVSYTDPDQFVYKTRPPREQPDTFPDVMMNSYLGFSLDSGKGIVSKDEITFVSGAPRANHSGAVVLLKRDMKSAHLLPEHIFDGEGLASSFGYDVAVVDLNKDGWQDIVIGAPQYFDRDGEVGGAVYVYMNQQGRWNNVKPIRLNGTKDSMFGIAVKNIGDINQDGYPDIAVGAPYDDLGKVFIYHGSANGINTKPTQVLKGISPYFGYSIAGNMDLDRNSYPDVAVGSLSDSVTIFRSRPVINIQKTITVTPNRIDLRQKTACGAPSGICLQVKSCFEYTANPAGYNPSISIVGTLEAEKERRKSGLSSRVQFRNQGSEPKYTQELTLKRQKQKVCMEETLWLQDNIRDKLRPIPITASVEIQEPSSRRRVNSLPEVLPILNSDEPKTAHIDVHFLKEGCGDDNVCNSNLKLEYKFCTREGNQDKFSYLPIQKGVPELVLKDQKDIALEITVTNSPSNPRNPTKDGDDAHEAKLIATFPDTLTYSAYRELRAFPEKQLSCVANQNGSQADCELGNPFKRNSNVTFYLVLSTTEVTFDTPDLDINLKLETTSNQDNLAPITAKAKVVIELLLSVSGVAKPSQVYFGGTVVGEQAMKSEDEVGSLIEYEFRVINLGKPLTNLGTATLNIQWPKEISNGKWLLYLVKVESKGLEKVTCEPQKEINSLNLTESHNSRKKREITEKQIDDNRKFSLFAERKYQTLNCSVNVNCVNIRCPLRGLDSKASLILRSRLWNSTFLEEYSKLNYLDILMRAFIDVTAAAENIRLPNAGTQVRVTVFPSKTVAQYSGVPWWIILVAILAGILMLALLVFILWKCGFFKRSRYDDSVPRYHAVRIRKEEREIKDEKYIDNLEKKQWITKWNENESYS
UniProt P16144: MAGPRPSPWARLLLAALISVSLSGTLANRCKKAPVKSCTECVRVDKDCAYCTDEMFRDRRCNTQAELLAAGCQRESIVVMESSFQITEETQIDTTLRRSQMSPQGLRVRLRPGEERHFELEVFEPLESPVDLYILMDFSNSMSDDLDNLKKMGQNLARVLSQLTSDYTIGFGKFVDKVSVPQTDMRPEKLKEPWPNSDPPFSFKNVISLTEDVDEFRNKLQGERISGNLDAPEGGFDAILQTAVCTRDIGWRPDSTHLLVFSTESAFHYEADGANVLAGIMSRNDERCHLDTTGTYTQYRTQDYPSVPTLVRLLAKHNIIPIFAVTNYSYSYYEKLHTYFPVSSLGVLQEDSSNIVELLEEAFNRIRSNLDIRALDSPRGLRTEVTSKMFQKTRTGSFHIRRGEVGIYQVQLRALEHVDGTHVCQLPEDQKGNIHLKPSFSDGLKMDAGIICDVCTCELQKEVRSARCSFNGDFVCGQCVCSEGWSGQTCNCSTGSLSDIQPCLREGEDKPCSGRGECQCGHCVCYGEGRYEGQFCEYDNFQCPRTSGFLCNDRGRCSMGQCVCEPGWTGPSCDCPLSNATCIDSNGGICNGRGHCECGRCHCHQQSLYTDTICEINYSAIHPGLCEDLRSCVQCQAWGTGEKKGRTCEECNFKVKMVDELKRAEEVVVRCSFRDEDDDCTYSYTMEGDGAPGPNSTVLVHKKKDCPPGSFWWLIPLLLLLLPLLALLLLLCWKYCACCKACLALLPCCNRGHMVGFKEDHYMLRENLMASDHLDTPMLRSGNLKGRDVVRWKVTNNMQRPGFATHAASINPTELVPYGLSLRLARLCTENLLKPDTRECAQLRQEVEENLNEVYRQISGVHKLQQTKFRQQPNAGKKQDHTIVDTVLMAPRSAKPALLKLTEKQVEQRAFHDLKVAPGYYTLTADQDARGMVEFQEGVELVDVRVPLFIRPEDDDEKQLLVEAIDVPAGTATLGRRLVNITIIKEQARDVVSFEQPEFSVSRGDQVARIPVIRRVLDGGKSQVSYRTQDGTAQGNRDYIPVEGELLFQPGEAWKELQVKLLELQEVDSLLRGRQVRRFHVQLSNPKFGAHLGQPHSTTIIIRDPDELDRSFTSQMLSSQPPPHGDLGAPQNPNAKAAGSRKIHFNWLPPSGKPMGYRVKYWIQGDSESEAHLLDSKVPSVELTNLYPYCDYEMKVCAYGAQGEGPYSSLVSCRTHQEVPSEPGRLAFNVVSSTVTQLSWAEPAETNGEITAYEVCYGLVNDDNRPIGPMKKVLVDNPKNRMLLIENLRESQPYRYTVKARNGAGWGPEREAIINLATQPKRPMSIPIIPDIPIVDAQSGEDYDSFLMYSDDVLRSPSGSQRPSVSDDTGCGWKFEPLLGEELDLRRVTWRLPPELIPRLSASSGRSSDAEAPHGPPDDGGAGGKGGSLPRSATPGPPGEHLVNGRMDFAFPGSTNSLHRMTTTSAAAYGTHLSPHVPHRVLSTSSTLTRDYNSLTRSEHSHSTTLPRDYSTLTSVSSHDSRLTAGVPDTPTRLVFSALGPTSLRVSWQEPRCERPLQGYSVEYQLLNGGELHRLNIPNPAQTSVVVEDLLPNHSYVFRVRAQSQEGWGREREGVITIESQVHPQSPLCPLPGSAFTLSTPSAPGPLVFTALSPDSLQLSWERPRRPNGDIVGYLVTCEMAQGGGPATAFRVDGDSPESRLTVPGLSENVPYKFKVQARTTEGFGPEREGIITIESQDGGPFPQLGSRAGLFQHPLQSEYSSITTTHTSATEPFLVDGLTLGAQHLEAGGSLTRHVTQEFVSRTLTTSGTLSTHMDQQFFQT

binding [1]	binding [2]	Binder
binds		Fab L52 (Fab, V domains shown) VH: EVQLQQSGAELARPGASVKMSCKASGNTFNTIHWIKQRPGQGLEWIGYINPSNGLTKNNQKFKDKATLTADKSSSTAYMQLSSLTSEDSAVYSCALGYFYAMDYWGQGTSVTVSS VL: DIVLTQSPASLSVSLGQRATISCKASQSVDNDGISYMNWYQQKPGQPPKLLIYAASNLGSGVPARFSGSGSGTDFSLNIHPVEEEDAATYFCQQYNGYPYTFGGGTKLEIKR
	binds	Fab 65A12 (Fab, V domains shown) VH: EVQLQQSGPELVKPGASVKISCKTSGYTFTEYTMHWVKQSHGKSLEWIGGINPNNGGTNYNQKFKGKATLTVDKSSSTAYMELRSLTSEDSAVYYCARWTGDFDVWGAGTTVTVSS VL: DIVMTQSQKFMSTSVGDRVSVTCKASQNVGTNVAWYQQKPGQSPDALIYSASYRYSGVPDRFTGSGSGTDFTLTITNVQSEDLADYFCQQYNSYPLTFGSGTKLDLKR

Source: patent US20080008719A1 (Alexion, published 2008)
